PubChem BioAssay AID1259424, University of Nebraska Medical Center | 2018
Test: 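Find knockdowns that reproduce the expression shifts seen after KSR1 loss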 (primary screen). Cell system: human HCT116 colon cancer cells. Reagent: siRNA pool against human genes, 50 nM. Measured: 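Six signature mRNAs by branched-DNA multiplex assay, scaled to two housekeeping genes and non-targeting median, log2; matched to mean KSR1 knockdown profile by Pearson correlation and euclidean distance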. Direction: mean correlation with KSR1 profile: higher = expression change more like KSR1 knockdown.
Shown is one part, drawn at random, of about 14,000 deposited reagents. 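Higher correlation or smaller distance means closer resemblance to KSR1 loss; control wells, including KSR1 knockdowns, recur on many plates.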 Further read-outs or replicates are left out here. Reagent sequences are not shown. The record does not give: the time to read-out.

For FGFBP1 (GeneID 9982) [SID363996062], what was measured?
mean correlation with KSR1 profile: 0.748

How did the screen score COL11A1 (GeneID 1301) [SID363993068]?
mean correlation with KSR1 profile: 0.0248

For GUSB (GeneID 2990) [SID363991517], what was measured?
mean correlation with KSR1 profile: -0.0851

How did the screen score SCD5 (GeneID 79966) [SID364003151]?
mean correlation with KSR1 profile: 0.684

Which result is listed for ENC1 (GeneID 8507) [SID363994709]?
mean correlation with KSR1 profile: 0.285

For IGHG4 (GeneID 3503) [SID363991346], how do the results read?
mean correlation with KSR1 profile: -0.348

Which result is listed for MEIS2 (GeneID 4212) [SID364001508]?
mean correlation with KSR1 profile: -0.737

What did the screen give for PPM1L (GeneID 151742) [SID364004606]?
mean correlation with KSR1 profile: -0.757

With PARP16 (GeneID 54956) [SID364000582], what does the deposit list?
mean correlation with KSR1 profile: -0.626

For HS2ST1 (GeneID 9653) [SID363998184], what was measured?
mean correlation with KSR1 profile: -0.12

With SPAG11B (GeneID 10407) [SID364000162], what was measured?
mean correlation with KSR1 profile: 0.171

Which result is listed for TWF1 (GeneID 5756) [SID363993978]?
mean correlation with KSR1 profile: 0.417

2 of these entries, reformatted.
{"Gene":"SCD5 (GeneID 79966)","PubChem SID":"SID364003151","mean correlation with KSR1 profile":0.684}
{"Gene":"ENC1 (GeneID 8507)","PubChem SID":"SID363994709","mean correlation with KSR1 profile":0.285}
